According to patent US12030891B2, “Xanthonic compounds and their use as antifouling agents” (CIIMAR—CENTRO INTERDISCIPLINAR DE INVESTIGACAO MARINHA E …, priority 2018, dated 2024):

Tested on: proteome of M. galloprovincialis plantigrade larvae
Experiment: Antifouling targets by label-free shotgun proteomics
Design: species or system Mytilus galloprovincialis

| SMILES | number of proteins with altered abundances (larvae exposed at 12.5 and 50 uM) [proteins] | number of proteins with significant change of abundances (larvae exposed at 6.25 and 25 uM) [proteins] | detection of two putative proximal thread matrix proteins (TMPs) (larvae exposed at 6.25 and 25 uM, versus control group) |
| --- | --- | --- | --- |
| O=c1c2ccccc2oc2c(O)c(O)ccc12 [3,4dOHx, 3,4-dihydroxy-9H-xanthen-9-one] | 24 | – | – |
| CC1(C)CCc2cc3c(=O)c4ccccc4oc3c(O)c2O1 [XP13, 12-hydroxy-2,2-dimethyl-3,4-dihydro-2H,6H-pyrano[3,2-b]xanthen-6-one] | – | 14 | become undetected |
